# From PMC7862700
# Only a part is listed here, and it is no random draw. At the low end of the ranking the order means little.
# Biological target: SPI1 (UniProt P17947)
# Test: DAPPL (digital affinity profiling via proximity ligation, sequencing)
# Conditions: 10 mM Tris-HCl pH 7.5, 50 mM NaCl, 1 mM DTT, 4% glycerol, room temperature, 30 min; GST-TFs on glutathione beads, 16-mer random dsDNA library, 0.1% …; high values mean tight binding; double strand, one strand shown; scale: fold enrichment (6-mer frequency, TF over GST control)
row,Sequence,binding signal
1,GTTCAG,0.965
2,CAGAAC,0.918
3,TGTAGA,0.941
4,AACCGA,0.989
5,ATTAGT,0.934
6,AATTCT,1.27
7,TGTTGG,0.982
8,AGCGGC,0.915
9,TCATGA,0.973
10,GCGGCT,0.919
11,CGTAGC,1.04
12,AGGACC,0.87
13,CGGAAC,1.29
14,GCAGCA,0.918
15,GCTTCT,1.43
16,AAGAAC,1.14
17,TAATTC,1.33
18,GAGCTT,0.972
19,CATCAG,0.912

# An excerpt from the list above:
row,Sequence,binding signal
11,CGTAGC,1.04
12,AGGACC,0.87

# More entries

row,Sequence,binding signal
1,CAAGCC,0.955
2,TAGATA,0.977
3,GCACTC,1.35
4,GTCCAA,0.948
5,TAACCA,1.06
6,ATCAGA,0.876
7,CGACGC,1.06
8,TCTTGG,1.35
9,ATAACC,1.06
10,CTAAGG,0.919
11,GCTAGG,0.882
12,AGGGTT,0.988
13,AGATCA,0.79
14,TGCGTT,1.1
15,GGCTAC,0.954
16,CTATTG,1.26
17,AGAACA,0.998
18,GGATGG,0.868
19,TTCCGG,5.73
